# According to the supplement of paper PMC4604168 (melanoma cell lines):
# The other results are listed elsewhere or left out. Repeats are few or missing, and single values can be far off.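 The apoptosis fraction was the count of cleaved-PARP antibody-stained nuclei relative to all DNA-stained nuclei, imaged in 1,536-well plates. Screening doses were set so most cells survived, and baseline and induced cleaved-PARP levels vary greatly across cell lines.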
# How the values were obtained:
# Assay in all cases: cleaved PARP positive nuclei fraction relative to DMSO control; melanoma cells; higher = more apoptosis
# Conditions in all cases: library dose: low library concentration; 72 h
# [1] = system: COLO792
# [2] = system: COLO800
# [3] = system: COLO829
# [4] = system: G361
# [5] = system: IPC-298
# [6] = system: IST-MEL1
# [7] = system: LB2518-MEL
# [8] = system: LOXIMVI
# [9] = system: MEL-HO
Structure (SMILES),cleaved PARP positive nuclei fraction [1],cleaved PARP positive nuclei fraction [2],cleaved PARP positive nuclei fraction [3],cleaved PARP positive nuclei fraction [4],cleaved PARP positive nuclei fraction [5],cleaved PARP positive nuclei fraction [6],cleaved PARP positive nuclei fraction [7],cleaved PARP positive nuclei fraction [8],cleaved PARP positive nuclei fraction [9]
"CS(=O)(=O)c1ccc(C(=O)Nc2ccc(Cl)c(-c3ccccn3)c2)c(Cl)c1 [vismodegib] + Cn1cncc1[C@@](N)(c1ccc(Cl)cc1)c1ccc2c(c1)c(-c1cccc(Cl)c1)cc(=O)n2C [tipifarnib] (first compound 1 µM, partner dose 0.01 µM)",127%,159%,63.7%,133%,95.7%,90.4%,52.7%,79.2%,71.8%
"Cn1cnc2c(F)c(Nc3ccc(Br)cc3Cl)c(C(=O)NOCCO)cc21 [selumetinib] + CN(C)S(=O)(=O)c1ccc2c(c1)/C(=C/c1cc3c([nH]1)CCCC3)C(=O)N2 [SU6656] (first compound 0.015 µM, partner dose 0.4 µM)",80%,59.7%,93.7%,176%,144%,138%,152%,78%,24.9%
"CS(=O)(=O)c1ccc(C(=O)Nc2ccc(Cl)c(-c3ccccn3)c2)c(Cl)c1 [vismodegib] + C[C@@H]1CCN(C(=O)CC#N)C[C@@H]1N(C)c1ncnc2[nH]ccc12 [CP690550] (first compound 1 µM, partner dose 1 µM)",32.4%,99.8%,150%,86.3%,44.4%,228%,88.6%,197%,64.2%
"COc1ccc(C2=N[C@@H](c3ccc(Cl)cc3)[C@@H](c3ccc(Cl)cc3)N2C(=O)N2CCNC(=O)C2)c(OC(C)C)c1 [Nutlin-3] + Cn1cncc1[C@@](N)(c1ccc(Cl)cc1)c1ccc2c(c1)c(-c1cccc(Cl)c1)cc(=O)n2C [tipifarnib] (first compound 0.1 µM, partner dose 0.01 µM)",135%,221%,87.4%,124%,95.3%,167%,123%,75.6%,63.3%
"NC1(c2ccc(-c3nc4ccn5c(=O)[nH]nc5c4cc3-c3ccccc3)cc2)CCC1 + NCC(=O)Nc1ccc(-n2nc(C(F)(F)F)cc2-c2ccc3c(ccc4ccccc43)c2)cc1 [OSU03012] (first compound 0.4 µM, partner dose 1 µM)",134%,142%,165%,64.3%,107%,102%,51%,65.5%,170%
"Cn1sc(=O)n(Cc2ccccc2)c1=O + Cn1cncc1[C@@](N)(c1ccc(Cl)cc1)c1ccc2c(c1)c(-c1cccc(Cl)c1)cc(=O)n2C [tipifarnib] (first compound 0.4 µM, partner dose 0.01 µM)",38.4%,153%,73.2%,119%,43.3%,63.8%,86.6%,52%,127%
"CCN(CC)CCNC(=O)c1c(C)[nH]c(/C=C2\C(=O)Nc3ccc(F)cc32)c1C [sunitinib] + NCC(=O)Nc1ccc(-n2nc(C(F)(F)F)cc2-c2ccc3c(ccc4ccccc43)c2)cc1 [OSU03012] (first compound 0.4 µM, partner dose 1 µM)",187%,75%,105%,90.4%,113%,391%,100%,78.5%,69.7%
"C[C@]1(O)C[C@@H](c2nc(-c3ccc4ccc(-c5ccccc5)nc4c3)c3c(N)nccn32)C1 + Cn1cncc1[C@@](N)(c1ccc(Cl)cc1)c1ccc2c(c1)c(-c1cccc(Cl)c1)cc(=O)n2C [tipifarnib] (first compound 0.4 µM, partner dose 0.01 µM)",83.4%,181%,101%,115%,170%,443%,32.4%,106%,41.5%
"NC(=O)c1ccc(N(C(N)=O)c2c(F)cccc2F)nc1-c1ccc(F)cc1F + NCC(=O)Nc1ccc(-n2nc(C(F)(F)F)cc2-c2ccc3c(ccc4ccccc43)c2)cc1 [OSU03012] (first compound 0.4 µM, partner dose 1 µM)",250%,129%,68%,144%,96%,430%,199%,121%,112%
"CN(c1ncccc1CNc1nc(Nc2ccc3c(c2)CC(=O)N3)ncc1C(F)(F)F)S(C)(=O)=O + NCC(=O)Nc1ccc(-n2nc(C(F)(F)F)cc2-c2ccc3c(ccc4ccccc43)c2)cc1 [OSU03012] (first compound 0.08 µM, partner dose 1 µM)",97.7%,186%,140%,84.9%,69.9%,106%,105%,206%,43.4%
"C[C@@H](N)c1ccc(C(=O)Nc2ccnc3[nH]ccc23)cc1 + CO[C@@H]1[C@H](N(C)C(=O)c2ccccc2)C[C@H]2O[C@]1(C)n1c3ccccc3c3c4c(c5c6ccccc6n2c5c31)C(=O)NC4 [Midostaurin] (first compound 0.4 µM, partner dose 0.08 µM)",218%,54.8%,158%,332%,412%,56.2%,77.7%,63.4%,165%
"CCN(CC)CCNC(=O)c1c(C)[nH]c(/C=C2\C(=O)Nc3ccc(F)cc32)c1C [sunitinib] + O=C(CCCCCCC(=O)Nc1ccccc1)NO [vorinostat] (first compound 0.4 µM, partner dose 0.08 µM)",20.9%,110%,176%,84.3%,47.3%,148%,125%,110%,40.4%
"CN(c1ncccc1CNc1nc(Nc2ccc3c(c2)CC(=O)N3)ncc1C(F)(F)F)S(C)(=O)=O + O=C(Nc1cccc(Cl)c1)Nc1ncc(CCNc2ncnc3ccsc23)s1 [SNS314] (first compound 0.08 µM, partner dose 0.0008 µM)",53.1%,133%,93.3%,125%,88.1%,150%,70.2%,53.6%,144%
"CCN(CC)CCNC(=O)c1c(C)[nH]c(/C=C2\C(=O)Nc3ccc(F)cc32)c1C [sunitinib] + CN(NC(=O)CC(=O)NN(C)C(=S)c1ccccc1)C(=S)c1ccccc1 [STA4783] (first compound 0.4 µM, partner dose 0.006 µM)",109%,116%,44.1%,139%,162%,82.4%,139%,40.8%,42.6%
"Cn1cnc2c(F)c(Nc3ccc(Br)cc3Cl)c(C(=O)NOCCO)cc21 [selumetinib] + Cc1ccc(NC(=O)c2cccc(N(C)C)c2)cc1NC(=O)c1ccc(O)cc1 [ZM336372] (first compound 0.015 µM, partner dose 2 µM)",68.2%,190%,30.6%,146%,117%,131%,93.5%,57.4%,58.7%
"CS(=O)(=O)c1ccc(C(=O)Nc2ccc(Cl)c(-c3ccccn3)c2)c(Cl)c1 [vismodegib] + Cc1ccc(NC(=O)c2cccc(N(C)C)c2)cc1NC(=O)c1ccc(O)cc1 [ZM336372] (first compound 1 µM, partner dose 2 µM)",20.6%,59.9%,49.8%,72.8%,64.3%,276%,94.2%,61.6%,281%
"C[C@]1(O)C[C@@H](c2nc(-c3ccc4ccc(-c5ccccc5)nc4c3)c3c(N)nccn32)C1 + O=C(Nc1cccc(Cl)c1)Nc1ncc(CCNc2ncnc3ccsc23)s1 [SNS314] (first compound 0.4 µM, partner dose 0.0008 µM)",257%,120%,57.7%,143%,193%,80.5%,54.2%,118%,146%
"CCN(CC)CCNC(=O)c1c(C)[nH]c(/C=C2\C(=O)Nc3ccc(F)cc32)c1C [sunitinib] + Cc1ccc(NC(=O)c2cccc(N(C)C)c2)cc1NC(=O)c1ccc(O)cc1 [ZM336372] (first compound 0.4 µM, partner dose 2 µM)",96.5%,114%,109%,127%,140%,106%,99%,26.2%,135%
"NC1(c2ccc(-c3nc4ccn5c(=O)[nH]nc5c4cc3-c3ccccc3)cc2)CCC1 + COc1cc2c(Oc3ccc4[nH]c(C)cc4c3F)ncnc2cc1OCCCN1CCCC1 [cediranib] (first compound 0.4 µM, partner dose 0.4 µM)",182%,25.8%,127%,53.6%,132%,111%,48.2%,86.7%,268%
"CN(c1ncccc1CNc1nc(Nc2ccc3c(c2)CC(=O)N3)ncc1C(F)(F)F)S(C)(=O)=O + OCCn1cc(-c2cnc3nnn(Cc4ccc5ncccc5c4)c3n2)cn1 [PF04217903] (first compound 0.08 µM, partner dose 1 µM)",100%,74%,84.9%,166%,185%,49.8%,107%,279%,72.7%
"NC(=O)c1ccc(N(C(N)=O)c2c(F)cccc2F)nc1-c1ccc(F)cc1F + Cc1cc(N2CCOCC2)cc2[nH]c(-c3c(NC[C@@H](O)c4cccc(Cl)c4)cc[nH]c3=O)nc12 [BMS536924] (first compound 0.4 µM, partner dose 0.2 µM)",104%,143%,78.2%,114%,95.3%,74.5%,173%,55.5%,228%
"Cn1cnc2c(F)c(Nc3ccc(Br)cc3Cl)c(C(=O)NOCCO)cc21 [selumetinib] + C[C@@H]1CCN(C(=O)CC#N)C[C@@H]1N(C)c1ncnc2[nH]ccc12 [CP690550] (first compound 0.015 µM, partner dose 1 µM)",99.1%,38.6%,71.8%,139%,192%,63.1%,220%,77.3%,99.1%

# Nothing new here: an excerpt of the list.
Structure (SMILES),cleaved PARP positive nuclei fraction [1],cleaved PARP positive nuclei fraction [2],cleaved PARP positive nuclei fraction [3],cleaved PARP positive nuclei fraction [4],cleaved PARP positive nuclei fraction [5],cleaved PARP positive nuclei fraction [6],cleaved PARP positive nuclei fraction [7],cleaved PARP positive nuclei fraction [8],cleaved PARP positive nuclei fraction [9]
"CCN(CC)CCNC(=O)c1c(C)[nH]c(/C=C2\C(=O)Nc3ccc(F)cc32)c1C [sunitinib] + CN(NC(=O)CC(=O)NN(C)C(=S)c1ccccc1)C(=S)c1ccccc1 [STA4783] (first compound 0.4 µM, partner dose 0.006 µM)",109%,116%,44.1%,139%,162%,82.4%,139%,40.8%,42.6%
"Cn1cnc2c(F)c(Nc3ccc(Br)cc3Cl)c(C(=O)NOCCO)cc21 [selumetinib] + Cc1ccc(NC(=O)c2cccc(N(C)C)c2)cc1NC(=O)c1ccc(O)cc1 [ZM336372] (first compound 0.015 µM, partner dose 2 µM)",68.2%,190%,30.6%,146%,117%,131%,93.5%,57.4%,58.7%
